From publication PMC10943014
No constants are given. Whether binding was seen depends on the method and setting. In cells and extracts the contact can be indirect. Some binding calls cover weakened binding; strength is not graded here.

Amino acid sequences for entries named in this document (tags omitted). A change or cut given only in a name is not applied to a line headed by its entry.
UniProt Q9JMB7: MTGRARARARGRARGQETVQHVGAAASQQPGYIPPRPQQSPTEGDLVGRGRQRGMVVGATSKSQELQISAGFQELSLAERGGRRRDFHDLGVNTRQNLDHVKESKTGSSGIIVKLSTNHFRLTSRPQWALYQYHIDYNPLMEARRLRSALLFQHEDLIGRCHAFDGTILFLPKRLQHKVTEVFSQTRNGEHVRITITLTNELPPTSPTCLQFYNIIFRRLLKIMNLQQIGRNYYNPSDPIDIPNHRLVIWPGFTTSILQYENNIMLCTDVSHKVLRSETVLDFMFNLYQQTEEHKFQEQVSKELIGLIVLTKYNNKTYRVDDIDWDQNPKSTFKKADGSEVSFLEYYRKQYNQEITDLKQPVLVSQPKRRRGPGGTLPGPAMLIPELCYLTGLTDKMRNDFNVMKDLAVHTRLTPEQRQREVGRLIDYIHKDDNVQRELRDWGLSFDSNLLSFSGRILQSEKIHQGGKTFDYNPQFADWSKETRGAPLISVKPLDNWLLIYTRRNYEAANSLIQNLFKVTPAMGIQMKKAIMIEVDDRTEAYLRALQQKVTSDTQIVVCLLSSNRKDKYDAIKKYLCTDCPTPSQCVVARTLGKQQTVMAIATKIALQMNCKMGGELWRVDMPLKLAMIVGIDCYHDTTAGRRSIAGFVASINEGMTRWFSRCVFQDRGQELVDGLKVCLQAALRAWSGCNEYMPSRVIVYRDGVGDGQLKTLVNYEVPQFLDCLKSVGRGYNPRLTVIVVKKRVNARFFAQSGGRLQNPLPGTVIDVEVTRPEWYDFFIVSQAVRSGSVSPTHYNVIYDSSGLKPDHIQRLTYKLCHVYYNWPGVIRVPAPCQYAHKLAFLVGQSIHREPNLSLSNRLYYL

B1: TDRKH (mitochondria-anchored Tudor domain-containing protein), endogenous in mouse testes (protein, UniProt Q80VL1 1-560)
chain: MSTERTSWTNLSTIQKIALGLGIPASATVAYILYRRYRESREERLTFVGEDDIEIEMRVPQEAVKLIIGRQGANIKQLRKQTGARIDVDTEDVGDERVLLISGFPVQVCKAKAAIHQILTENTPVFEQLSVPQRSVGRIIGRGGETIRSICKASGAKITCDKESEGTLLLSRLIKISGTQKEVAAAKHLILEKVSEDEELRKRIAHSAETRVPRKQPISVRREEVTEPGGAGEAALWKNTNSSMGPATPLEVPLRKGGGDMVVVGPKEGSWEKPNDDSFQNSGAQSSPETSMFEIPSPDFSFHADEYLEVYVSASEHPNHFWIQIIGSRSLQLDKLVSEMTQHYENSLPEDLTVHVGDIVAAPLSTNGSWYRARVLGTLENGNLDLYFVDFGDNGDCALKDLRALRSDFLSLPFQAIECSLARIAPTGEEWEEEALDEFDRLTHCADWKPLVAKISSYVQTGISTWPKIYLYDTSDEKKLDIGLELVRKGYAVELPEDMEENRTVPNMLKDMATETDDSLASILTETKKSPEEMPHTLSCLSLSEAASMSGDDNLEDDLF
B2: TDRKH in GC-2spd (ts) cells (protein, UniProt Q80VL1 1-560)
chain: B1 chain

What was measured:
[1] = target: MIWI^YK (MIWI Y569L/K573E, MID-domain piRNA loading-deficient mutant), endogenous in Miwi^YK/YK knock-in mouse testes (mouse (endogenous in mouse testes)) (UniProt Q9JMB7); assay: co-IP; anti-MIWI (in-house rabbit polyclonal) IP from mouse testicular lysate (18 dpp or adult; wildtype, Miwi^YY/YY, Miwi^YK/YK, Tdrd6^−/−), immunoblot for TDRKH and TDRD6; with or without RNase A treatment of the lysate; antibody-coupled Protein A/G beads, 4 °C, wash with 500 mM NaCl
[2] = target: MIWI^YY (MIWI Y346A/Y347A, PAZ-domain piRNA loading-deficient mutant), endogenous in Miwi^YY/YY knock-in mouse testes (mouse (endogenous in mouse testes)) (UniProt Q9JMB7); assay: as above
[3] = target: Flag-tagged MIWI stably expressed in GC-2spd (ts) cells (mouse) (UniProt Q9JMB7); assay: co-IP; lysates of GC-2spd (ts) cells stably expressing Flag-tagged MIWI; with or without piRNA transfection and RNase A treatment; TDRKH blot normalised with MIWI blotting

Row | Binder | binding [1] | binding [2] | binding [3]
1 | B1 | binds | binds | –
2 | B2 | – | – | binds
